No constants are given. Whether binding was seen depends on the method and setting. In cells and extracts the contact can be indirect. These calls come from enrichment with a bait or labelling near it, and not all partners need be listed. Tags and fused reporters may be left off the sequences shown.
T1: IFN alpha inducible protein 27 (IFI27) fused to a C-terminal HA tag (human) (UniProt P40305)
T1 sequence: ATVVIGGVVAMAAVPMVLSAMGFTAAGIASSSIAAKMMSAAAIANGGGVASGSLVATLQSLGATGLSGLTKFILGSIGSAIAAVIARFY

By UniProt entry, the sequences of proteins in these tests, tags left out.
UniProt P36873: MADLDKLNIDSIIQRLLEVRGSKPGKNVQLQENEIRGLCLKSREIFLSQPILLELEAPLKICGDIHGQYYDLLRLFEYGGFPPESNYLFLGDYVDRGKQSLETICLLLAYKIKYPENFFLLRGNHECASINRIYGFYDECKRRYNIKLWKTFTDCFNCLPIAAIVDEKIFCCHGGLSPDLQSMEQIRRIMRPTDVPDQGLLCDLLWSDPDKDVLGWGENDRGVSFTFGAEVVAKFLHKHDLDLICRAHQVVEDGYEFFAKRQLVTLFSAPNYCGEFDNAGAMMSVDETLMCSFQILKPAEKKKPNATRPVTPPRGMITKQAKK


Molecular target: T1, IFN alpha inducible protein 27 (IFI27) fused to a C-terminal HA tag (human)
Experiment: affinity purification with mass spectrometry; HEK-293T transfected with pCAGGS-IFI27-HA (or pCAGGS-IFI44-HA, or empty plasmid), then poly(I:C) 3000 ng/ml; lysis in NaCl 250 mM, EDTA 1 mM, 50 mM TrisHCl pH 7.5, NP-40 0.5%; anti-HA affinity resin overnight at 4 °C; washes in TBS with 0.1% SDS; elution 0.1 M glycine pH 2.4; LC-MS/MS

binding | Molecule
binds | protein phosphatase 1C (PPP1CC), gamma isoform of the phosphatase catalytic subunit, endogenous (from UniProt P36873 1-323) (enzyme)
binds | TARBP2 Subunit of RISC Loading Complex (TARBP2), endogenous (protein, UniProt Q15633 1-366) MSEEEQGSGTTTGCGLPSIEQMLAANPGKTPISLLQEYGTRIGKTPVYDLLKAEGQAHQPNFTFRVTVGDTSCTGQGPSKKAAKHKAAEVALKHLKGGSMLEPALEDSSSFSPLDSSLPEDIPVFTAAAAATPVPSVVLTRSPPMELQPPVSPQQSECNPVGALQELVVQKGWRLPEYTVTQESGPAHRKEFTMTCRVERFIEIGSGTSKKLAKRNAAAKMLLRVHTVPLDARDGNEVEPDDDHFSIGVGSRLDGLRNRGPGCTWDSLRNSVGEKILSLRSCSLGSLGALGPACCRVLSELSEEQAFHVSYLDIEELSLSGLCQCLVELSTQPATVCHGSATTREAARGEAARRALQYLKIMAGSK

Reference: article PMC12204625
